Test results reported in article PMC6819981.
Results are given in words; binding and its absence hold for the method and conditions named. In cells and extracts the contact can be indirect. Some binding calls cover weakened binding; strength is not graded here. Where a sequence is shown, tags or fusion partners need not be part of it.

Target: T1, NDK-1::GFP (C. elegans) (UniProt Q93576)
T1 sequence: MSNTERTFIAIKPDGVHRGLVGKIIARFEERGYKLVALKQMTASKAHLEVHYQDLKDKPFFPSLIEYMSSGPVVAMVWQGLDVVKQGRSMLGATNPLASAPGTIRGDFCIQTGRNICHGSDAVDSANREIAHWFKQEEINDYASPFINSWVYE
Assay: co-IP; mixed-stage worm extracts (TTV3, N2) in 25 mM HEPES NaOH pH 7.4, 150 mM NaCl, 1 mM DTT, 0.5% Triton X-100, 1 mM EDTA; NDK-1::GFP captured with monoclonal anti-GFP (3E6); blot with polyclonal anti-DYN-1; controls: anti-tubulin mouse IgG, N2 extract

B1: DYN-1/Dynamin (C. elegans) (protein, UniProt P39055 1-830)
chain: MSWQNQGMQALIPVINRVQDAFSQLGTSVSFELPQIAVVGGQSAGKSSVLENFVGKDFLPRGSGIVTRRPLILQLIQDRNEYAEFLHKKGHRFVDFDAVRKEIEDETDRVTGQNKGISPHPINLRVFSPNVLNLTLIDLPGLTKVPVGDQPADIEQQIRDMILTFINRETCLILAVTPANSDLATSDALKLAKEVDPQGLRTIGVLTKLDLMDEGTDAREILENKLFTLRRGYVGVVNRGQKDIVGRKDIRAALDAERKFFISHPSYRHMADRLGTSYLQHTLNQQLTNHIRDTLPTLRDSLQKKMFAMEKDVAEYKNYQPNDPGRKTKALLQMVTQFNADIERSIEGSSAKLVSTNELSGGARINRLFHERFPFEIVKMEIDEKEMRKEIQYAIRNIHGIRVGLFTPDMAFEAIAKKQITRLKEPSLKCVDLVVNELANVIRQCADTMARYPRLRDELERIVVSHMREREQIAKQQIGLIVDYELAYMNTNHEDFIGFSNAEAKASQGQSAKKNLGNQVIRKGWLSLSNVSFVRGSKDNWFVLMSDSLSWYKDDEEKEKKYMLPLDGVKLKDIEGGFMSRNHKFALFYPDGKNIYKDYKQLELGCTNLDEIDAWKASFLRAGVYPEKQKAQEDESQQEMEDTSIDPQLERQVETIRNLVDSYMRIITKTIKDLVPKAVMHLIVNQTGEFMKDELLAHLYQCGDTDALMEESQIEAQKREEMLRMYHACKEALRIISEVNMSTLGDQPPPLPMSDYRPHPSGPSPVPRPAPAPPGGRQAPMPPRGGPGAPPPPGMRPPPGAPGGGGGMYPPLIPTRPGPGGPPPNMAPPR
binding: binds
